# Data published in publication PMC7862700.
# The other results are listed elsewhere or left out. The exact form of the protein is not confirmed.
# Biological target: T1, ELF2 (UniProt Q15723)
# T1 sequence: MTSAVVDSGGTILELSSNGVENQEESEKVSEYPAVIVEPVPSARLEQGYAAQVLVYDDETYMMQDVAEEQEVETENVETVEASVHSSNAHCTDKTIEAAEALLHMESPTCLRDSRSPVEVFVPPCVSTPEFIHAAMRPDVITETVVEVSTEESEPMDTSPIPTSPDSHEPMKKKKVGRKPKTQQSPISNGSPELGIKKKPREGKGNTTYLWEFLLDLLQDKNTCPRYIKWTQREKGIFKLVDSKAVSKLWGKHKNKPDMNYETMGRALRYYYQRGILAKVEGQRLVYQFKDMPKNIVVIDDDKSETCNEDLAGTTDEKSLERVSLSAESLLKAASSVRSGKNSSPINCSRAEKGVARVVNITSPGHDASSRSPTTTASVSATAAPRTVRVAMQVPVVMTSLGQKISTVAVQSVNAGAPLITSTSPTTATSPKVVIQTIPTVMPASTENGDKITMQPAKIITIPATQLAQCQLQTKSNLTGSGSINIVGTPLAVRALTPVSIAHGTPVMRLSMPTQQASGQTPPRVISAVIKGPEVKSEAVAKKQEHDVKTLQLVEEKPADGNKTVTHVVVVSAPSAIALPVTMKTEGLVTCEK
# Test: DAPPL (digital affinity profiling via proximity ligation, sequencing)
# Settings: 10 mM Tris-HCl pH 7.5, 50 mM NaCl, 1 mM DTT, 4% glycerol, room temperature, 30 min; GST-TFs on glutathione beads, 16-mer random dsDNA library, 0.1% …; high values mean tight binding; double strand, one strand shown; scale: fold enrichment (6-mer frequency, TF over GST control)
row,Sequence,binding signal
1,CCGTCT,1.34
2,GTTTCT,1.32
3,GAAACT,1.31
4,CTTCTC,1.3
5,TCCGTC,1.37
6,AATTAA,1.29
7,TATACA,1.35
8,TTGTTT,1.47
9,TCCTCG,1.45
10,TCGCAT,0.964
11,TATATG,1.3
12,TCTATA,1.1
13,TGATAG,0.976
14,TTTTTT,1.22
15,TCATGA,0.959
16,TCAAAA,1.15
17,CGAGCA,1.03
18,TCACTG,1.09
19,AATAAA,1.34
20,CGTTTA,1.07

# A few values from the list.
# binding signal with TATACA is entered as 1.35
# binding signal with GTTTCT is entered as 1.32

# (further entries)

row,Sequence,binding signal
1,TATTGC,1.32
2,TACTCC,1.23
3,CTTGCG,1.33
4,CTATTA,1.08
5,CTGTTC,1.53
6,AATATC,1.66
7,TCCGCC,1.77
8,GTTCAC,1.2
9,GGCTAA,0.901
10,CCCCAG,0.976
11,CGCGAT,1.03
12,AATGGT,1.34
13,ACCTTA,1.19
14,CTGAAA,1.11
15,CTACCA,1.22
16,CAATAC,1.27
17,ATGATG,1.26
18,TCCTAG,1.31
19,CCACTG,1.16
20,TAAGTA,1.19
